Variants at the floor of the assay are shown more often than the library holds them.
B1: tRNA (parent)
chain: GUUCCGUUGGCGUAAUGGUAACGCGUCUCCCUCCUAAGGAGAAGACUGCGGGUUCGAGUCCCGUACGGAACG

Variants of: B1
Experiment: yeast fitness relative to wild type (ratio to wild type); higher = fitter; tRNA-Arg(CCU), competitive growth, 37 C, YPD
Method in brief: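 Variants of the tRNA-Arg(CCU) gene, chemically synthesised with a 3% per-site mutation rate at 69 sites, were placed at the native genomic locus in Saccharomyces cerevisiae. The pooled strains were competed in YPD at 37°C for 24 hours in six parallel replicates. Gene amplicons from the start population and from each end population were read by 100-nucleotide paired-end sequencing. Darwinian fitness relative to wild type came from changes in genotype frequencies; genotypes needed ≥ 100 starting reads, and estimates < 0.5 were set to 0.5.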
For A20G C33U G50C A57C, the yeast fitness was no more than 0.5.
Work on A14U C29G U53C U54G C55U yielded a yeast fitness of no more than 0.5.
For U3C A45U C62G, the yeast fitness was no more than 0.5.
With G25A G48A C61A the yeast fitness was no more than 0.5.
For C24U A57G C61U C62G A65G C66A, the yeast fitness was no more than 0.5.
Work on C11U G50C C66A yielded a yeast fitness of no more than 0.5.
For C5A C27G U47C, the yeast fitness was no more than 0.5.
Work on C30A C31U U32C A45C C55G yielded a yeast fitness of no more than 0.5.
G17C C29U gave a yeast fitness of 0.545.
For U32C A37U G52A, the yeast fitness was no more than 0.5.
U8A U26G showed a yeast fitness of 0.666.
Variant A15U G23U A37U C49G A65G has a yeast fitness of no more than 0.5.
With C29A C49U U64A the yeast fitness was no more than 0.5.
A42C A45U C46G G58C A70U gave a yeast fitness of no more than 0.5.
In the case of U53A C60G G67A A70C, the yeast fitness is reported as no more than 0.5.
With A20G G23C the yeast fitness was 0.727.
Variant G9C C24G C33G U35A G48C A69C has a yeast fitness of no more than 0.5.
For U16C C55G G56C, the yeast fitness was no more than 0.5.
In the case of G12C A20U C22A, the yeast fitness is reported as 0.927.
With A15U C34U C60G the yeast fitness was no more than 0.5.
For U2A U3C C24G C33G C66U A70U, the yeast fitness was no more than 0.5.
In the case of C24G A37G C55U, the yeast fitness is reported as no more than 0.5.
Variant U7C U16C G50A C55U A65G has a yeast fitness of no more than 0.5.
C29U A43G C49A showed a yeast fitness of 0.615.
A14U A20G U32G showed a yeast fitness of no more than 0.5.
With C24U U26A G63C the yeast fitness was no more than 0.5.
With U7C U8G U19C C30U A36U the yeast fitness was no more than 0.5.
In the case of C4U G25A A36C A70G, the yeast fitness is reported as no more than 0.5.
G10A C11G C31G A43C gave a yeast fitness of no more than 0.5.
C5G U13C C62U showed a yeast fitness of 0.602.
Work on G25C C31A C46G U64G yielded a yeast fitness of no more than 0.5.
Work on G17A C27U A36C C55A yielded a yeast fitness of no more than 0.5.
In the case of A20G C22U G51A A57G, the yeast fitness is reported as no more than 0.5.
For A45U U59G, the yeast fitness was 0.66.
C4U C5A A40C U64A showed a yeast fitness of no more than 0.5.
For G23C C31G C33U A42G G52C G58C, the yeast fitness was no more than 0.5.
C5G G9C C55A C61G gave a yeast fitness of no more than 0.5.
With C4U U28C C49G A70G the yeast fitness was no more than 0.5.
A37U C60U C62G U64A A69U showed a yeast fitness of no more than 0.5.
Work on G23A C29G U32C A45U C60G C61U A69G yielded a yeast fitness of no more than 0.5.
For U35G G38A G52C, the yeast fitness was 0.678.
For U2A A14U C29A C49A, the yeast fitness was no more than 0.5.
Variant G6A G18C C49U C61G has a yeast fitness of no more than 0.5.
With U2A A15U C30U A43U G56C the yeast fitness was no more than 0.5.
Variant C4G C5U G41C A57U has a yeast fitness of no more than 0.5.
C5G U19C C24U showed a yeast fitness of 0.684.
Work on U3A A20G A37C C55G C61U yielded a yeast fitness of no more than 0.5.
U7G A21G C60U showed a yeast fitness of no more than 0.5.
C5U C22U U35A A37U G67A gave a yeast fitness of no more than 0.5.
Work on U2A G10A G17C U35C C62U A70C yielded a yeast fitness of no more than 0.5.
Work on C4A C5A C11G A15U U19C A21U yielded a yeast fitness of no more than 0.5.
In the case of A15G G17A C33U G39C C55A G67C, the yeast fitness is reported as 0.66.
A14G C24G G50A C55G showed a yeast fitness of no more than 0.5.
Variant G12A C34U A45U C49G has a yeast fitness of no more than 0.5.
C4A C55G C60U G68C gave a yeast fitness of no more than 0.5.
For C4U C11G G18A G23C U47G G50A G67C, the yeast fitness was no more than 0.5.
C5U C27U C55U A65C A69G gave a yeast fitness of no more than 0.5.
U26C C33A C62U gave a yeast fitness of no more than 0.5.
C11U G51C gave a yeast fitness of 0.718.
With G6A C27G A36G A43G the yeast fitness was no more than 0.5.
With C5G U7A A20C C49A the yeast fitness was no more than 0.5.
C24A C27G C61A C66G showed a yeast fitness of no more than 0.5.
With C4U G50A G67C the yeast fitness was 0.578.
G6A C34U U35A C66A gave a yeast fitness of no more than 0.5.
Work on A20C C22U C61G yielded a yeast fitness of no more than 0.5.
C24G C31G C61G A69C gave a yeast fitness of no more than 0.5.
For A14U G25A C62A G63A A70G, the yeast fitness was no more than 0.5.
In the case of U8C A14U C30A C61U C62A A70G, the yeast fitness is reported as 0.532.
G9C A37U A43G C55U gave a yeast fitness of no more than 0.5.
For C30A C34G A40G, the yeast fitness was no more than 0.5.
With A15C C30U A70C the yeast fitness was no more than 0.5.
Work on U2A G58A U64G yielded a yeast fitness of no more than 0.5.
For C24U C34U C46U C62A, the yeast fitness was no more than 0.5.
Variant C11G C27A G56C C61A has a yeast fitness of no more than 0.5.
With U3G U8A U26G G38C A40C U53C A69C A70U the yeast fitness was no more than 0.5.
For A15C C31U U35C G38A G56C A70U, the yeast fitness was no more than 0.5.
For C11U G17C A21U A37C G56C, the yeast fitness was no more than 0.5.
U8A G9A C24G showed a yeast fitness of no more than 0.5.
For C11U A36U A43C A57G, the yeast fitness was 1.1.
Variant U3C C24G C29A A43U G68C has a yeast fitness of no more than 0.5.
Variant C11G A20C C55A C62A has a yeast fitness of no more than 0.5.
In the case of G9U U16C C55G G67A, the yeast fitness is reported as no more than 0.5.
A21U U32G G48C C49U showed a yeast fitness of no more than 0.5.
With C27G U59G G68C the yeast fitness was 0.582.
G9C U13C A42C G68C gave a yeast fitness of no more than 0.5.
With C29U C33A C34U G51C U64A C66U A69C the yeast fitness was no more than 0.5.
Variant A20G U47A U53A has a yeast fitness of no more than 0.5.
For C24G C27G C61U, the yeast fitness was no more than 0.5.
In the case of C5A U16C U59G, the yeast fitness is reported as no more than 0.5.
Work on C5A A21U G51A yielded a yeast fitness of no more than 0.5.
G9A A57G gave a yeast fitness of 0.933.
Work on A20U A37U A57U C62U yielded a yeast fitness of no more than 0.5.
Work on A15C C27U G39C yielded a yeast fitness of no more than 0.5.
With C34U G38A G41C A57U the yeast fitness was no more than 0.5.
In the case of G10C C22A G56C U59C, the yeast fitness is reported as no more than 0.5.
C30U U53G A69U showed a yeast fitness of no more than 0.5.
Work on A20U C33G C60G A70G yielded a yeast fitness of no more than 0.5.
Variant U7A A20G C31U U35C A57C G67C has a yeast fitness of no more than 0.5.
For G10C A70G, the yeast fitness was 0.644.
A15U C33G C66U gave a yeast fitness of no more than 0.5.
U13A C49U C62U G67C showed a yeast fitness of no more than 0.5.
A37C U64G gave a yeast fitness of 0.684.
G23A C24U C33G U35G C60U C62G gave a yeast fitness of no more than 0.5.
In the case of C33A A42C A45C U47G, the yeast fitness is reported as 0.515.
U28G G44C G48C showed a yeast fitness of 0.556.
In the case of C4G U19A A21G C62A, the yeast fitness is reported as no more than 0.5.
For A14C C30A A37C G39A, the yeast fitness was no more than 0.5.
A20U G41C C49U G56C showed a yeast fitness of no more than 0.5.
C22U C34A A42U G44C C61A showed a yeast fitness of no more than 0.5.
Work on C27G A37U A42G yielded a yeast fitness of no more than 0.5.
G25A C27U A36U G63C gave a yeast fitness of no more than 0.5.
Variant C4A C27G C29G has a yeast fitness of no more than 0.5.
With G9C G38A the yeast fitness was 0.624.
For U16C U32A A45C G48A G68A, the yeast fitness was no more than 0.5.
For U13A C31U C34U U54C, the yeast fitness was no more than 0.5.
With C5G A20G A40G G44A C46G C60G C61U G63A the yeast fitness was no more than 0.5.
Variant C31U C66A G68C has a yeast fitness of no more than 0.5.
For C5G C33A U64A, the yeast fitness was no more than 0.5.
Variant G6A G39C C60G A70U has a yeast fitness of no more than 0.5.
Work on U19G G44A C46G yielded a yeast fitness of 0.946.
Variant G23A C30A U64A has a yeast fitness of no more than 0.5.
C24U U59A gave a yeast fitness of 0.875.
With U54G A57C the yeast fitness was no more than 0.5.
Variant U3C U32G C34U C66U has a yeast fitness of no more than 0.5.
For U28G A43U G67C, the yeast fitness was no more than 0.5.
G23C C29U C31G showed a yeast fitness of no more than 0.5.
For G9C G50A G51A, the yeast fitness was no more than 0.5.
For C5U G12A A40U A45G U53C A57G C66U, the yeast fitness was no more than 0.5.
Variant C11U A15U has a yeast fitness of 0.757.
A15U U16C G23C showed a yeast fitness of no more than 0.5.
Variant A20G U26C has a yeast fitness of 0.984.
Variant A20U C24G C34G G58A has a yeast fitness of no more than 0.5.
Variant A14C C29U U47G G50A C62A A70C has a yeast fitness of no more than 0.5.
Work on U7C C33U U59G yielded a yeast fitness of no more than 0.5.
Work on C22G A57C C62U yielded a yeast fitness of no more than 0.5.
With U54A C62G the yeast fitness was 0.637.
For C34A G39C G52A G58A, the yeast fitness was no more than 0.5.
For G9C C24G C30U, the yeast fitness was no more than 0.5.
For C5G G9A U47A G68C, the yeast fitness was no more than 0.5.
With G41A G48C G52A the yeast fitness was no more than 0.5.
With U13A C46G G63C C66A the yeast fitness was no more than 0.5.
In the case of U8A G10A G39A, the yeast fitness is reported as 0.626.
Work on G17A A65U yielded a yeast fitness of 0.805.
Variant G6C C62A has a yeast fitness of 0.798.
C11A U28C C33U G41A G52C gave a yeast fitness of no more than 0.5.
Variant C66G has a yeast fitness of 0.902.
Variant C27A C29G C49G G51C U54C has a yeast fitness of no more than 0.5.
Work on A15C A36U A57U yielded a yeast fitness of no more than 0.5.
With C5A U7C C31A the yeast fitness was no more than 0.5.
For G9A A14C G25C, the yeast fitness was no more than 0.5.
With U7G U13C C31U A40U C66G G68C the yeast fitness was no more than 0.5.
In the case of C30U A42U U64A C66G A69U, the yeast fitness is reported as no more than 0.5.
With U13C A14G A42C C62G A70U the yeast fitness was no more than 0.5.
Variant A21U C24G C27U C30U A36U G39A has a yeast fitness of no more than 0.5.
Variant A20G C29G A40G has a yeast fitness of no more than 0.5.
For C11U A45U C66A, the yeast fitness was 0.659.
C5G A14U C27G C34G gave a yeast fitness of no more than 0.5.
In the case of U26C U28A C29G C33A A42U A70U, the yeast fitness is reported as no more than 0.5.
For A15U U32C C33G C62G, the yeast fitness was no more than 0.5.
In the case of A20C G23C C34A, the yeast fitness is reported as no more than 0.5.
Variant G10C C31A A40U C46U has a yeast fitness of no more than 0.5.
With C5U A14G C30G C31G A65U C66G the yeast fitness was no more than 0.5.
In the case of C27G C46U C61G, the yeast fitness is reported as no more than 0.5.
Work on U26C U54G C66A yielded a yeast fitness of no more than 0.5.
U8C C22G C27U C49U U64C gave a yeast fitness of no more than 0.5.
U8C U26C G51C C62G A70C gave a yeast fitness of no more than 0.5.
Variant G6A U59A C62G has a yeast fitness of no more than 0.5.

Source: the RNAGym collection of RNA variant scans (doi:10.1126/science.aae0568)
